In paper PMC8983136:
Numbering of substitutions follows the chain as printed. Results are given in words; binding and its absence hold for the method and conditions named. In cells and extracts the contact can be indirect. Some entries that bind do so weakly or less than the wild type. Sequences can lack the tags named with a protein.

By UniProt entry, the sequences of proteins in these tests, tags left out.
UniProt A2RUB1: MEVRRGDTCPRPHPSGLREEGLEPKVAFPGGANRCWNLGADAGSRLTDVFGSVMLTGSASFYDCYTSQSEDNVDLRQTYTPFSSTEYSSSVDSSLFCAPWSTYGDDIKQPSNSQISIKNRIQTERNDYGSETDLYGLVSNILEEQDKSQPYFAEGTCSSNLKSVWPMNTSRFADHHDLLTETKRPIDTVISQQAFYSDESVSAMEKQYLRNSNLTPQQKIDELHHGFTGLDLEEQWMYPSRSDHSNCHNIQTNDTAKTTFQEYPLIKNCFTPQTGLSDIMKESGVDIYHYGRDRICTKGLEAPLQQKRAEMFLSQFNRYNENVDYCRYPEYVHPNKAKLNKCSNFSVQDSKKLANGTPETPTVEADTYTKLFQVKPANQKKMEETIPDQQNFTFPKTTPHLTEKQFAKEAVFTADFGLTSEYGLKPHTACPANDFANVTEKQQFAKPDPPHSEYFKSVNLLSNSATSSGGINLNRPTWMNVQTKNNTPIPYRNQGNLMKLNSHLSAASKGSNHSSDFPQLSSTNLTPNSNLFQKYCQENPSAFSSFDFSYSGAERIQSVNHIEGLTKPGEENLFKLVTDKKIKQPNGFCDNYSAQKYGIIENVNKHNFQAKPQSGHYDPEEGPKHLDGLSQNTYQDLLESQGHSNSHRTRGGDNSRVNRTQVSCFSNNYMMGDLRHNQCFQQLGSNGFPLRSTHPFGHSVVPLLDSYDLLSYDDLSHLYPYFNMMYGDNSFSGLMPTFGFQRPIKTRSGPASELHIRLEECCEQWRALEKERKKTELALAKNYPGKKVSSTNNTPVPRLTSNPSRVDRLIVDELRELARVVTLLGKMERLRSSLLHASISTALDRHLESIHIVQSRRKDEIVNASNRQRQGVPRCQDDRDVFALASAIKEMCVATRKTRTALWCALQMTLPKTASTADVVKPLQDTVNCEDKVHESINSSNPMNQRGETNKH

Key:
[1] = target: T1, p.P856R FLAG-tagged YTHDC2 (pcDNA3.1-HsYTHDC2-1-1430-P856R-Flag) (human) (UniProt Q9H6S0); assay: co-IP; HEK-293 cells co-transfected with WT or mutant YTHDC2-Flag and HA-MEIOC; lysate diluted in binding buffer (150 mM NaCl, 20 mM Tris-HCl pH 7.5, 1 mM EDTA, 10% glycerol, 0.1% BSA); anti-FLAG M2 magnetic beads overnight at 4°C; RNase A (100 μg/mL) when required; blots with anti-Flag and anti-HA
T1 sequence: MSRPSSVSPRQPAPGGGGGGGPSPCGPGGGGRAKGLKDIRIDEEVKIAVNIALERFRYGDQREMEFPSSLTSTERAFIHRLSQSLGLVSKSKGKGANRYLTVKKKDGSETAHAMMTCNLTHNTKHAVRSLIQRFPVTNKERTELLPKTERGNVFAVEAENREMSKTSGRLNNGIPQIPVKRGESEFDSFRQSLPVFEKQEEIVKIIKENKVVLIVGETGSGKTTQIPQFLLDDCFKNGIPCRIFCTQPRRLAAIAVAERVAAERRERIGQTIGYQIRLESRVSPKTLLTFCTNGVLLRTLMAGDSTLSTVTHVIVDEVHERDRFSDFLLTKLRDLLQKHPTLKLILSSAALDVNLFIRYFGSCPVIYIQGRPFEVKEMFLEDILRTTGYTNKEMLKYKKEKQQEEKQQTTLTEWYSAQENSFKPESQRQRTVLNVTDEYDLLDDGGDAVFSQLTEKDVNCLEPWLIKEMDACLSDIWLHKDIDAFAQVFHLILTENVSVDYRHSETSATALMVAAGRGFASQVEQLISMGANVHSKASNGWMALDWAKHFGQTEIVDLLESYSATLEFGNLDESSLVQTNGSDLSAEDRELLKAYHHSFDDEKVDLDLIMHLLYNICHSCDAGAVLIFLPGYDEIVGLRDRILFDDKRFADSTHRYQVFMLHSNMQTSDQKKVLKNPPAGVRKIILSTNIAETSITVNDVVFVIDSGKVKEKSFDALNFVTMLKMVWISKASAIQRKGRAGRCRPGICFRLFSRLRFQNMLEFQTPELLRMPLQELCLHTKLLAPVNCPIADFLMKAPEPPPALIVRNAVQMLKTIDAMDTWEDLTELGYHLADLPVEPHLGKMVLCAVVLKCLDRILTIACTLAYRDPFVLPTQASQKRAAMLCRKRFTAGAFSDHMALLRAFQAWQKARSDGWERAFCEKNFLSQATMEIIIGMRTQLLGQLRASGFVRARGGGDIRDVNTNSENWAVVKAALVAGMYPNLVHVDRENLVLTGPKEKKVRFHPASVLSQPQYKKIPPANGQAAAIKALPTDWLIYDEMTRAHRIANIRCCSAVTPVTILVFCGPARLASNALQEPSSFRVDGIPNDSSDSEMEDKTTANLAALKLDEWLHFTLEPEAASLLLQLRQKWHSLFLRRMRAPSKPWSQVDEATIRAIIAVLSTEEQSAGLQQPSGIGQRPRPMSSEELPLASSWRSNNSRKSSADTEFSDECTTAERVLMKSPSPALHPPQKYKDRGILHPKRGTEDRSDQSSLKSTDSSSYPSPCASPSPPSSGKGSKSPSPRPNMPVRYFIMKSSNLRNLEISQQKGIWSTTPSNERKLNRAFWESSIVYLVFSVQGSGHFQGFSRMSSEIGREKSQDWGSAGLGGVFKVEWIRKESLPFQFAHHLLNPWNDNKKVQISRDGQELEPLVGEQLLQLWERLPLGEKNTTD

[2] = target: T2, WT FLAG-tagged YTHDC2 (pcDNA3.1-HsYTHDC2-1-1430-Flag) (human) (UniProt Q9H6S0); assay: as above
T2 sequence: T1 sequence with R856P

binding [1]: binds
binding [2]: binds
Substance: HA-tagged MEIOC (from UniProt A2RUB1 1-952)
